This assay concerns the target T1, SPD-5::TagRFP (C. elegans), P91349.
T1 chain: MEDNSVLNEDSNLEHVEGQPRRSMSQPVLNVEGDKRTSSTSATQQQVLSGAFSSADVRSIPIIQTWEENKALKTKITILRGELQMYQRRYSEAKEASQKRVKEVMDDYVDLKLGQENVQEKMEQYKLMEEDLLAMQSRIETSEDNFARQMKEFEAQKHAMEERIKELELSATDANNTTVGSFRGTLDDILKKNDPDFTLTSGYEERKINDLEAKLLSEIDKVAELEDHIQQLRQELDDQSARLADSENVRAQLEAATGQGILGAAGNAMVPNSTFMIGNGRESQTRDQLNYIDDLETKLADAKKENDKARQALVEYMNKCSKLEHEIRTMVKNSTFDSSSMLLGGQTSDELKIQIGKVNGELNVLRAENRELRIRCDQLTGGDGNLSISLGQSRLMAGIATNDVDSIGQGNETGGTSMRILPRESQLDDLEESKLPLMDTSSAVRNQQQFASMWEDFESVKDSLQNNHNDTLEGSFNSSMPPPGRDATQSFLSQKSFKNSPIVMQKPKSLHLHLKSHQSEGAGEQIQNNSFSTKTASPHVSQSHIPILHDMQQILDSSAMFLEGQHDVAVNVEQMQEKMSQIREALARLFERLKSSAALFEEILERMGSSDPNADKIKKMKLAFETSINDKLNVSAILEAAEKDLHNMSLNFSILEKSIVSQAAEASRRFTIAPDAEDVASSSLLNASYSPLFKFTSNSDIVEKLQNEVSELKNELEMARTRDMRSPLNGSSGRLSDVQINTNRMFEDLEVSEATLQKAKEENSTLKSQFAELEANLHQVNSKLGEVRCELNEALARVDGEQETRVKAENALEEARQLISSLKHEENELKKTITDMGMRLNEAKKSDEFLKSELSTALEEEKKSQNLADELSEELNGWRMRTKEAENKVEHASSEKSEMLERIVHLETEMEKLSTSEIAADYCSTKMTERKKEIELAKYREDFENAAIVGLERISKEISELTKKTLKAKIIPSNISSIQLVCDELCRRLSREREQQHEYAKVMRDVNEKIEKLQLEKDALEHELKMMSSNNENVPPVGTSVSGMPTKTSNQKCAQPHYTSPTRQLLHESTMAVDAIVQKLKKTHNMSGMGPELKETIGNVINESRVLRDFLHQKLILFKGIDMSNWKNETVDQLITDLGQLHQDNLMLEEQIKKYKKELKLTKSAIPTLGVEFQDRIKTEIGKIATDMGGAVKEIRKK
The assay is described as follows: fluorescence microscopy of droplets. The settings on record: remark: other sources report otherwise.

These are yes or no findings as the source states them, for the method shown. Some binding calls cover weakened binding; strength is not graded here. Where a sequence is shown, tags or fusion partners need not be part of it.

B1: SPD-5::GFP, P91349 1-1198 (protein)
chain: MEDNSVLNEDSNLEHVEGQPRRSMSQPVLNVEGDKRTSSTSATQQQVLSGAFSSADVRSIPIIQTWEENKALKTKITILRGELQMYQRRYSEAKEASQKRVKEVMDDYVDLKLGQENVQEKMEQYKLMEEDLLAMQSRIETSEDNFARQMKEFEAQKHAMEERIKELELSATDANNTTVGSFRGTLDDILKKNDPDFTLTSGYEERKINDLEAKLLSEIDKVAELEDHIQQLRQELDDQSARLADSENVRAQLEAATGQGILGAAGNAMVPNSTFMIGNGRESQTRDQLNYIDDLETKLADAKKENDKARQALVEYMNKCSKLEHEIRTMVKNSTFDSSSMLLGGQTSDELKIQIGKVNGELNVLRAENRELRIRCDQLTGGDGNLSISLGQSRLMAGIATNDVDSIGQGNETGGTSMRILPRESQLDDLEESKLPLMDTSSAVRNQQQFASMWEDFESVKDSLQNNHNDTLEGSFNSSMPPPGRDATQSFLSQKSFKNSPIVMQKPKSLHLHLKSHQSEGAGEQIQNNSFSTKTASPHVSQSHIPILHDMQQILDSSAMFLEGQHDVAVNVEQMQEKMSQIREALARLFERLKSSAALFEEILERMGSSDPNADKIKKMKLAFETSINDKLNVSAILEAAEKDLHNMSLNFSILEKSIVSQAAEASRRFTIAPDAEDVASSSLLNASYSPLFKFTSNSDIVEKLQNEVSELKNELEMARTRDMRSPLNGSSGRLSDVQINTNRMFEDLEVSEATLQKAKEENSTLKSQFAELEANLHQVNSKLGEVRCELNEALARVDGEQETRVKAENALEEARQLISSLKHEENELKKTITDMGMRLNEAKKSDEFLKSELSTALEEEKKSQNLADELSEELNGWRMRTKEAENKVEHASSEKSEMLERIVHLETEMEKLSTSEIAADYCSTKMTERKKEIELAKYREDFENAAIVGLERISKEISELTKKTLKAKIIPSNISSIQLVCDELCRRLSREREQQHEYAKVMRDVNEKIEKLQLEKDALEHELKMMSSNNENVPPVGTSVSGMPTKTSNQKCAQPHYTSPTRQLLHESTMAVDAIVQKLKKTHNMSGMGPELKETIGNVINESRVLRDFLHQKLILFKGIDMSNWKNETVDQLITDLGQLHQDNLMLEEQIKKYKKELKLTKSAIPTLGVEFQDRIKTEIGKIATDMGGAVKEIRKK
Turning to B1, the binding result is recorded as “binds”.

The record behind these values is publication doi:10.1101/093054 (bioRxiv, 2016).
